Laboratory results: PubChem BioAssay AID1259405 (NCATS, 2018)
Aim: 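Silenced genes that increase secreted GFP made by CHO cells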 (primary screen). Cells: Chinese hamster CHO-K1 ovary cells with stable secreted eGFP expression. Knock-down reagent: single siRNA against mouse genes, 0.8 pmol siRNA per well (2 µl of 400 nM stock). Time to read-out: 3 days. Detection: 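Percent of the per-plate non-targeting control median for intracellular GFP per well by laser scanning cytometry and for cell viability by ATP luminescence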. Reading the numbers: GFP, % of control: higher = more GFP per well, higher productivity; viability (ATP), % of control: higher = more viable cells (more ATP). Rule for the call: 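Called active when intracellular GFP, relative to negative control, is at or above 120%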.
This is an unselected part of about 50,000 deposited reagents. About 4,000 of all reagents (8%) were called active. 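Mouse siRNA library applied to hamster cells; one well for each siRNA.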 Unmarked entries are inactive. The numbers tell different reagents against one gene apart.

For Ttc24 (tetratricopeptide repeat domain 24) #1, the entry reads GFP, % of control 55.3; viability (ATP), % of control 39.4.
Silencing of Ttc24 (tetratricopeptide repeat domain 24) #2 came out at: GFP, % of control 46; viability (ATP), % of control 52.8.
With knock-down of Ttc24 (tetratricopeptide repeat domain 24) #3 the results were GFP, % of control 58.2; viability (ATP), % of control 62.4.
Depletion of Slc6a12 #1 came out at: GFP, % of control 53.4; viability (ATP), % of control 48.7.
Depletion of Slc6a12 #2 came out at: GFP, % of control 50.6; viability (ATP), % of control 53.2.
Slc6a12 #3 showed GFP, % of control 193 (active); viability (ATP), % of control 96.5.
Silencing of Pdcl3 (phosducin-like 3) #1 resulted in: GFP, % of control 56.1; viability (ATP), % of control 66.4.
Knock-down of Pdcl3 (phosducin-like 3) #2 came out at: GFP, % of control 77.5; viability (ATP), % of control 65.6.
For Pdcl3 (phosducin-like 3) #3 the deposit lists GFP, % of control 88.2; viability (ATP), % of control 71.2.
For Pfdn1 (prefoldin 1) #1, the values are GFP, % of control 74.1; viability (ATP), % of control 84.4.
Knock-down of Pfdn1 (prefoldin 1) #2 gave: GFP, % of control 47.3; viability (ATP), % of control 46.
After knock-down of Pfdn1 (prefoldin 1) #3 the results were GFP, % of control 82.3; viability (ATP), % of control 107.
Pou3f1 (POU domain, class 3, transcription factor 1) #1 gave GFP, % of control 93; viability (ATP), % of control 108.
Pou3f1 (POU domain, class 3, transcription factor 1) #2 showed GFP, % of control 101; viability (ATP), % of control 74.2.
With knock-down of Pou3f1 (POU domain, class 3, transcription factor 1) #3, the record shows GFP, % of control 75; viability (ATP), % of control 78.9.

Part of the list above in another layout:
target,siRNA no.,"GFP, % of control","viability (ATP), % of control"
Slc6a12,1,53.4,48.7
Slc6a12,2,50.6,53.2
Slc6a12,3,193 (active),96.5

Additional entries:
With knock-down of Or5p4 (olfactory receptor family 5 subfamily P member 4) #1, the screen gave GFP, % of control 72.6; viability (ATP), % of control 53.5.
After knock-down of Or5p4 (olfactory receptor family 5 subfamily P member 4) #2, the screen gave GFP, % of control 99.3; viability (ATP), % of control 85.3.
For Or5p4 (olfactory receptor family 5 subfamily P member 4) #3, the entry reads GFP, % of control 60.8; viability (ATP), % of control 57.5.
Silencing of Hoxd10 (homeobox D10) #1 resulted in: GFP, % of control 99.8; viability (ATP), % of control 97.9.
Against Hoxd10 (homeobox D10) #2 the deposit lists GFP, % of control 71.4; viability (ATP), % of control 81.2.
For Hoxd10 (homeobox D10) #3, the entry reads GFP, % of control 45.2; viability (ATP), % of control 48.7.
Depletion of Acoxl (acyl-Coenzyme A oxidase-like) #1 came out at: GFP, % of control 106; viability (ATP), % of control 48.3.
Acoxl (acyl-Coenzyme A oxidase-like) #2 scored GFP, % of control 82.3; viability (ATP), % of control 66.3.
Against Acoxl (acyl-Coenzyme A oxidase-like) #3, the values are GFP, % of control 47; viability (ATP), % of control 64.3.
With knock-down of Aplp1 (amyloid beta precursor like protein 1) #1, the screen gave GFP, % of control 76.6; viability (ATP), % of control 58.8.
Aplp1 (amyloid beta precursor like protein 1) #2 gave GFP, % of control 79.8; viability (ATP), % of control 95.8.
Aplp1 (amyloid beta precursor like protein 1) #3 gave GFP, % of control 93.5; viability (ATP), % of control 99.3.
